Source: patent US20080081078A1, “Prevention of Cell Proliferation by Inhibiting Myosin Light Chain Kinase” (The Board of Trustees of the University of Illinois, priority 2006, published 2008)
At least one compound was matched to its structure with a doubt left.

How the values were obtained:
MLC20 phosphorylation = MLC20 phosphorylation by urea gel/Western blotting in smooth muscle cells (SMC); type: cell-based, pig; conditions: 24 hrs, 10 μM Dex, 10 μM ActD, 100 μM Chx, 2 μM Cam, 100 μM Eto
Procedure: NIH 3T3 fibroblasts were obtained from ATCC and were grown in Dulbecco's Modified Eagle Medium (DMEM) (Gibco BRL, Gaithersburg, Md.) supplemented with 10% FBS and 1% penicillin and streptomycin in a 37° C. incubator. 3T3 cells were treated with 500 nM actinomycin D in DMEM containing 0.5% FBS without antibiotics for the 0, 2, 4, 8, 16, or 24 hours. Cells were then washed with phosphate buffered saline (PBS). Floating cells were collected by centrifugation and combined with attached cells that were harvested by trypsinization. MLC20 phosphorylation was quantified be Western blotting with an anti-MLC20 antibody (FIG. 1). […] Protein bands were visualized with ECL reagent and the stoichiometry of phosphorylation (mol PO4/mol MLC20) was calculated as described (Obara et al., 1989, “Okadaic acid, a phosphatase inhibitor, produces a Ca2+ and calmodulin-independent contraction of lamb tracheal smooth muscle,” Pfluger's Archiv. 414: 134-138).
The stoichiometry of MLC20 phosphorylation (FIG. 1B, inset) was quantified using the urea gel/Western blotting method described above in untreated (Un) pig pulmonary artery smooth muscle cells (SMC) and SMC treated with 10 μM dexamethasone (Dex), 10 μM actinomycin D (ActD), 100 μM cycloheximide (Chx), 2 μM camptothecin (Cam), and 100 μM etoposide (Eto) for 24 hrs (mean+/−SE, n=3). […]

[1] = tested on: pig pulmonary artery smooth muscle cells; experiment: Cell death / apoptosis in smooth muscle cells (SMC); type: cell-based; conditions: 10 μM dexamethasone, 24 hrs
Procedure: The stoichiometry of MLC20 phosphorylation (FIG. 1B, inset) was quantified using the urea gel/Western blotting method described above in untreated (Un) pig pulmonary artery smooth muscle cells (SMC) and SMC treated with 10 μM dexamethasone (Dex), 10 μM actinomycin D (ActD), 100 μM cycloheximide (Chx), 2 μM camptothecin (Cam), and 100 μM etoposide (Eto) for 24 hrs (mean+/−SE, n=3).
Next, in order to determine whether MLC-DP can trigger cell death, SMC were treated with ML-7 or KT5926, two inhibitors of MLCK (Nakanishi et al., 1990; Garcia, 1998; and Bain et al., 2003).
SMC cells were either treated with 10 μM cytochalasin D (CytD) or grown on the non-ionic substrate polyHema to prevent attachment.
SMC were left untreated, treated with ML-7 alone for 16 hours or treated with 50 μM z-VAD-fmk (caspase) for 1 hr followed by 20 μM ML-7 for 16 hours. […] The results represent the mean+/−SE for 3 independent experiments and * indicates a p value <0.05 using a paired T test.

C[C@@H]1C[C@H]2[C@@H]3CCC4=CC(=O)C=C[C@]4(C)[C@@]3(F)[C@@H](O)C[C@]2(C)[C@@]1(O)C(=O)CO [Dexamethasone]
MLC20 phosphorylation (MLC20 phosphorylation): neither dephosphorylated MLC20 | smooth muscle cell death [1]: nor induced smooth muscle cell death
